Experimental data: article PMC4530474, “Carbohydrate scaffolds as glycosyltransferase inhibitors with in vivo antibacterial activity” (Nature Communications, 2015)

Experiments:
E. faecalis VanA, ci = test: MIC determination (broth microdilution); settings: Enterococcus faecalis
E. coli ATCC 25922 = test: MIC determination (broth microdilution); settings: Escherichia coli, ATCC25922

SMILES: CN[C@H](CC(C)C)C(=O)N[C@H]1C(=O)N[C@@H](CC(N)=O)C(=O)N[C@H]2C(=O)N[C@H]3C(=O)N[C@H](C(=O)N[C@H](C(=O)O)c4cc(O)cc(O)c4-c4cc3ccc4O)[C@H](O)c3ccc(c(Cl)c3)Oc3cc2cc(c3O[C@@H]2O[C@H](CO)[C@@H](O)[C@H](O)[C@H]2O[C@H]2C[C@](C)(N)[C@H](O)[C@H](C)O2)Oc2ccc(cc2Cl)[C@H]1O [Vancomycin, reference compound]
- MIC (E. faecalis VanA, ci): > 64 µg/mL
- MIC (E. coli ATCC 25922): > 64 µg/mL
